Data reported in publication PMC11316225.
No constants are given. Whether binding was seen depends on the method and setting. In cells and extracts the contact can be indirect.

Amino acid sequences for entries named in this document (tags omitted). Residues count along the entry.
UniProt Q8NE86, residues 51-351: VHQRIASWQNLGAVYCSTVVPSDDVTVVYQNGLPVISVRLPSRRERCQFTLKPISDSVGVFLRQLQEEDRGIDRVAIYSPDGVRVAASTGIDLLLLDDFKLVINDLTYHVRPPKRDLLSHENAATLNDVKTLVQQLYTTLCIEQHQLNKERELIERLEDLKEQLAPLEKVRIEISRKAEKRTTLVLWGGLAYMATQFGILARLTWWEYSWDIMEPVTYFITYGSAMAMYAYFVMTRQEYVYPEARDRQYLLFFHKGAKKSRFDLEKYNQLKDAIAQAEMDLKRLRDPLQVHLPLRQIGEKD

How the values were obtained:
[1] = molecular target: T1, CHCHD2 (as immunoprecipitated in the test for MCU and MCUR) (UniProt Q9Y6H1); experiment: co-IP; immunoprecipitation of CHCHD2, blot for MCU and MCUR; cells not given
T1 sequence: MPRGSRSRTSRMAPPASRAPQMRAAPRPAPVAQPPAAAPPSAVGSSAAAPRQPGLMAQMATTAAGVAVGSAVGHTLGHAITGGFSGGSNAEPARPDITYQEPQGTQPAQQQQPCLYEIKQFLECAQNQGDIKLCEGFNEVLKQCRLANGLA

[2] = molecular target: T1, CHCHD2 (as immunoprecipitated in the test for MCU and MCUR); experiment: co-IP; immunoprecipitation of CHCHD2 after chemical cross-linking; cells not given

“mitochondrial calcium uniporter (from UniProt Q8NE86 51-351)” was tested, and the binding [1] was “no binding” and the binding [2] was “no binding”.
